According to publication PMC5577505:
No constants are given. Whether binding was seen depends on the method and setting. Binding seen in cells or lysates may run through a third protein. Some results given as binding are weak or reduced against the parent protein; the word gives no strength.

Amino acid sequences for entries named in this document (tags omitted).
UniProt O00571: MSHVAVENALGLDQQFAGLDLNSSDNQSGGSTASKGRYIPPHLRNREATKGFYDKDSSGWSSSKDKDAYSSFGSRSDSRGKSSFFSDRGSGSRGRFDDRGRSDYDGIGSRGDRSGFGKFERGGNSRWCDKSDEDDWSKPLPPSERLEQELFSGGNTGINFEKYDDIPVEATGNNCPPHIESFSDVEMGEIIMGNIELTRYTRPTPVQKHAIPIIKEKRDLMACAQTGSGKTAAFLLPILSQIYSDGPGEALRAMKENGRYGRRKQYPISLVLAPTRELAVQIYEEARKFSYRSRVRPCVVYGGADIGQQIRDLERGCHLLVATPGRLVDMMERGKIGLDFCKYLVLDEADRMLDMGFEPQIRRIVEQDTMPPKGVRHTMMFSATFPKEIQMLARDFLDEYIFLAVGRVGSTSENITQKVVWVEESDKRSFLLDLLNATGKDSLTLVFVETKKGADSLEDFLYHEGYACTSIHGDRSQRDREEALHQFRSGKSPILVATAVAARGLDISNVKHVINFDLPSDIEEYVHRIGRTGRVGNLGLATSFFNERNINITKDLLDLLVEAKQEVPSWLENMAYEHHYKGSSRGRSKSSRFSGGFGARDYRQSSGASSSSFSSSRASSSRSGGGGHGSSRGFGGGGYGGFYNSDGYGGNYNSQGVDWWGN
UniProt P11940: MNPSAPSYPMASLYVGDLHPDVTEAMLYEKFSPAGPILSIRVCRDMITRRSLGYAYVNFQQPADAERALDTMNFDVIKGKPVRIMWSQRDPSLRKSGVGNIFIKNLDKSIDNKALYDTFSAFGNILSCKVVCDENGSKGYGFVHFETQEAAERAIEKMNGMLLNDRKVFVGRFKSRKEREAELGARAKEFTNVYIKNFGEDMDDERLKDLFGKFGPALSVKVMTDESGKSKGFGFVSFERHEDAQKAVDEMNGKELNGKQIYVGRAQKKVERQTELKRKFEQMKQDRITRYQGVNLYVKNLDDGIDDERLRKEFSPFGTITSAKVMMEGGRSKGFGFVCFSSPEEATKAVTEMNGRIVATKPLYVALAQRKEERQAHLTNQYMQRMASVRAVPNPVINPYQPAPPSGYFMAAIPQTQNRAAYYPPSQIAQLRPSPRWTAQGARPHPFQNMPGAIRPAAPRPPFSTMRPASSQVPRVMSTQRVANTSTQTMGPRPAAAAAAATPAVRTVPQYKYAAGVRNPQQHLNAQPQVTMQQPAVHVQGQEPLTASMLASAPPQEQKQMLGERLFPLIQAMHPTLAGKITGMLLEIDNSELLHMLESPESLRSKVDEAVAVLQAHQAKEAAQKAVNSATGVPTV

Assays:
[1] = molecular target: HA-tagged DDX3X (UniProt O00571); assay: co-IP; HA-DDX3X precipitated with anti-HA-Agarose from lysates (500 µg protein) of spreading cells, without RNAse1, 2 h at 4°C; immunoblotting
[2] = molecular target: poly(A)-binding protein 1 (human (endogenous in MRC5)) (UniProt P11940); assay: co-IP; PABP1 precipitated with PABP1 antibody and Protein A-Sepharose from lysates (500 µg protein) of spreading cells, 4°C; resin-only control; immunoblotting
[3] = molecular target: poly(A)-binding protein 1 (human (endogenous in MRC5)) (UniProt P11940); assay: co-IP; actively growing cells with translation initiation or elongation inhibited; data not shown

binding [1]	binding [2]	binding [3]	Substance
binds			poly(A)-binding protein 1 (from UniProt P11940 1-636)
	binds	binds	DDX3X (endogenous) (from UniProt O00571 1-662)
